For one molecule, binding results are on record in paper PMC3299679.

Amino acid sequences for entries named in this document (tags omitted). Residues count along the entry.
UniProt P35968, residues 20-764: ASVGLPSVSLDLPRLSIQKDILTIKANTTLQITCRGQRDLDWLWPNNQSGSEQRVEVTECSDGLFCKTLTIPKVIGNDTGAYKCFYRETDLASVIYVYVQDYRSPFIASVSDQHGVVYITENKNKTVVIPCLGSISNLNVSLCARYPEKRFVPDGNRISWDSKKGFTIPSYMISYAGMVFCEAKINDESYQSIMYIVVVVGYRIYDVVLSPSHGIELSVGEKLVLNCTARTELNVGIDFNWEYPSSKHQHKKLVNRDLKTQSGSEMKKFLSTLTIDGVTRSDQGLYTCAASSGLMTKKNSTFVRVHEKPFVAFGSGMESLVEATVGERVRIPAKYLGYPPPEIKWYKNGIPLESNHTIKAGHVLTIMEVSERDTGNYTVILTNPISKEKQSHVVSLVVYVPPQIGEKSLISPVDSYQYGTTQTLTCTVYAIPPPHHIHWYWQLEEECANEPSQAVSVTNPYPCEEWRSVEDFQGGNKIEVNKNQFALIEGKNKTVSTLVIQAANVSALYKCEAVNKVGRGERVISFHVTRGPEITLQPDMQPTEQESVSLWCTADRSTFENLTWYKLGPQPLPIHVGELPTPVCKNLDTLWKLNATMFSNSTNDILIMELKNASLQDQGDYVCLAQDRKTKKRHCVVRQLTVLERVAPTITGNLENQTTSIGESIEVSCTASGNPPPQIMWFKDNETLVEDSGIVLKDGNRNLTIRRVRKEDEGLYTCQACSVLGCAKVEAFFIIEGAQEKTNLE
UniProt P02769, residues 25-607: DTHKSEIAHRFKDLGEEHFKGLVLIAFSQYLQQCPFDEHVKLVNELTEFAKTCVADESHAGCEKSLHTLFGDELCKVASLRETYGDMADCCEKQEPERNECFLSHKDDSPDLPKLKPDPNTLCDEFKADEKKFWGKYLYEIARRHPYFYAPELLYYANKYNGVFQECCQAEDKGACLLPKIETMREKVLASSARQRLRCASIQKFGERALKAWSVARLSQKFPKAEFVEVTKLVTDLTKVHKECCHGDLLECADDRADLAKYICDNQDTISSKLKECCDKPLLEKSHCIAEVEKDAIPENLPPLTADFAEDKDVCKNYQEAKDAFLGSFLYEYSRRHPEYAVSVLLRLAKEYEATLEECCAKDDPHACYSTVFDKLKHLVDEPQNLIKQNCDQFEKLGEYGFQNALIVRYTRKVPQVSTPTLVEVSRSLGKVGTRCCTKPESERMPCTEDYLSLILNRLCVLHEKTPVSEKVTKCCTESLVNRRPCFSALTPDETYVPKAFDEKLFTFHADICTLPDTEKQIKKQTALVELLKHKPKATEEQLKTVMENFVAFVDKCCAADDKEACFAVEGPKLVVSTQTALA

These are yes or no findings as the source states them, for the method shown. Some binding calls cover weakened binding; strength is not graded here.

Assay [1] deals with purified VEGFR2 protein (UniProt P35968). Nature of the assay: ELISA; VEGFR2 or BSA coated on a high-binding 96-well plate at 20 µg/ml in carbonate buffer overnight at 4°C, blocked with 1% BSA; Hsp20 at 1.2, 2.4 and 4.8 µg/ml in PBS, 2 h at room temperature; detected by anti-Hsp20 antibody and HRP secondary, read at 450 nm; both purified.
The target in assay [2] is BSA (UniProt P02769). The description is as above.

B1: recombinant human Hsp20 protein (protein, UniProt O14558 1-160)
chain: MEIPVPVQPSWLRRASAPLPGLSAPGRLFDQRFGEGLLEAELAALCPTTLAPYYLRAPSVALPVAQVPTDPGHFSVLLDVKHFSPEEIAVKVVGEHVEVHARHEERPDEHGFVAREFHRRYRLPPGVDPAAVTSALSPEGVLSIQAAPASAQAPPPAAAK
With B1, the figures for the binding result in assay [1] and in assay [2] were “binds” and “no binding (tested: 4.8 µg/ml)”, respectively.
